Source: PubChem BioAssay AID1259275 (Sanger Institute, 2017)
In all, the deposit lists 794 reagents; below is a part drawn at random. Over the whole deposit, 13 (1.6%) got an active call. 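Calls mark knock-downs lethal by themselves, not drug synergy; drugs went in a day after transfection, with DMSO as vehicle.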 Entries without a mark were called inactive. No viability above 1 is reported: the scale is capped. Not all columns of the deposit are shown. The record does not give: the amount of reagent, the time to read-out.

Purpose: 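Kinase and colorectal cancer genes needed for cancer cell survival, with or without drugs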 (primary screen)
System: COLO320HSR human colorectal cancer cells
Reagent: siRNA pool against human genes
Conditions: anchor drug added one day after transfection: BYL719 at 1 µM, cetuximab at 5 µg/ml or trametinib at 10 nM; DMSO as vehicle arm
Measured: 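Viability averaged over replicates as a fraction of the non-targeting pool, a robust z-score for knock-down alone, and synergy scores with BYL719 (1 µM), cetuximab (5 µg/ml) or trametinib (10 nM)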
Direction: robust z-score, siRNA alone: higher = more viable cells; strongly negative means essential; viability, knock-down alone (DMSO): higher = more viable cells; synergy score with BYL719 and synergy score with cetuximab: higher = stronger combined killing with drug
Call rule: 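a gene is called essential when its robust z-score without drug falls below -3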
Meaning of the calls: active = essential (siRNA alone); inactive = no change (siRNA alone)

Gene | robust z-score, siRNA alone | viability, knock-down alone (DMSO) (fraction of control) | synergy score with BYL719 | synergy score with cetuximab
PRKAG2 | 0.726 | 1 | -0.109 | -0.0635
PPP2R1A | 0.535 | 0.983 | -0.136 | -0.105
CALM2 | 0.726 | 1 | -0.104 | -0.0893
PIK3CB | 0.411 | 0.972 | 0.0762 | -0.115
PTEN | 0.0145 | 0.936 | -0.242 | -0.148
GK2 | 0.726 | 1 | -0.0599 | -0.0893
LYN | -0.0237 | 0.932 | -0.131 | -0.0223
LMTK1 | -0.78 | 0.864 | -0.144 | -0.213
GCK | -0.759 | 0.866 | -0.0713 | -0.12
CDK20 | 0.726 | 1 | -0.0165 | -0.0893
FES | 0.69 | 0.997 | -0.215 | -0.0923
EIF2AK3 | -0.479 | 0.891 | -0.107 | -0.134
CDKN1B | 0.726 | 1 | -0.225 | -0.0893
CKM | -0.814 | 0.861 | -0.304 | -0.216
HK1 | 0.726 | 1 | -0.116 | -0.0893
RPS6KB1 | -0.971 | 0.847 | -0.158 | -0.179
SOX9 | 0.363 | 0.967 | -0.125 | -0.037
PXK | 0.726 | 1 | -0.151 | -0.0256
TRPM7 | -0.244 | 0.912 | -0.0963 | -0.144
SMAD2 | -0.161 | 0.92 | -0.191 | -0.162
KCNH2 | -0.0323 | 0.932 | -0.153 | -0.123
FN1 | 0.726 | 1 | -0.0404 | -0.0287
MAP2K1 | -0.448 | 0.894 | -0.0619 | -0.144
GRK5 | 0.726 | 1 | -0.14 | -0.0893
BUB1 | 0.163 | 0.949 | -0.00254 | 0.0315
PRKD2 | 0.672 | 0.995 | -0.167 | -0.0938
TGFBR3 | 0.726 | 1 | -0.0872 | 0.0155
TRIB3 | 0.155 | 0.948 | 0.0192 | -0.0967
MOS | 0.151 | 0.948 | -0.123 | -0.0218
LRRK2 | 0.649 | 0.993 | -0.11 | -0.0957
STK3 | 0.726 | 1 | -0.183 | -0.0893
ZAP70 | 0.726 | 1 | -0.221 | -0.0893
WIPF1 | -1.97 | 0.757 | -0.0156 | -0.205
TAB1 | -1.21 | 0.826 | -0.0773 | -0.216
SMAD4 | 0.658 | 0.994 | -0.135 | -0.0949
PDK2 | -0.993 | 0.845 | -0.0306 | -0.11
KIT | 0.551 | 0.984 | -0.122 | -0.0878
CASK | 0.266 | 0.958 | -0.0649 | -0.127
MAP3K6 | -0.735 | 0.868 | -0.0885 | -0.0958
RYK | 0.726 | 1 | -0.242 | -0.0893
NAGK | -0.894 | 0.854 | -0.144 | -0.0611
BMPR1A | 0.726 | 1 | -0.054 | -0.0893
MAP2K6 | 0.0225 | 0.936 | -0.172 | -0.147
TRPM6 | 0.726 | 1 | -0.18 | -0.0893
TAOK1 | -0.42 | 0.897 | -0.254 | -0.177
EIF2AK1 | 0.726 | 1 | -0.231 | -0.0893
MAP3K10 | 0.726 | 1 | -0.192 | -0.0893
FGFRL1 | 0.315 | 0.963 | -0.0636 | -0.0634
TYK2 | 0.726 | 1 | -0.269 | -0.0893
STAG2 | 0.726 | 1 | -0.0246 | -0.0893

Sorted by “synergy score with cetuximab” (highest first): some entries from above
Gene | robust z-score, siRNA alone | viability, knock-down alone (DMSO) (fraction of control) | synergy score with BYL719 | synergy score with cetuximab
MOS | 0.151 | 0.948 | -0.123 | -0.0218
STK3 | 0.726 | 1 | -0.183 | -0.0893
ZAP70 | 0.726 | 1 | -0.221 | -0.0893
SMAD4 | 0.658 | 0.994 | -0.135 | -0.0949
LRRK2 | 0.649 | 0.993 | -0.11 | -0.0957
PDK2 | -0.993 | 0.845 | -0.0306 | -0.11
WIPF1 | -1.97 | 0.757 | -0.0156 | -0.205
TAB1 | -1.21 | 0.826 | -0.0773 | -0.216
